The list shows a part of the results.
Assays:
Experiment in all cases: log2 fold change, soluble protein after heating vs DMSO (PISA); higher = thermal stabilisation; K562 cells, 10 uM, 30 min; active = over 0.2 and 3.5 SD of the protein, either way, in both replicates (recomputed)
[1] = compound: C1=CC=C(C=C1)[C@H](COC2=CC3=C(C=C2)NC(=O)N3)NC(=O)C4=CC=CN(C4=O)CC5=CC(=C(C=C5)F)F
Method in brief: (§1)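 Thermal stability values are relative to control samples and come from duplicates. They are expressed as log2 fold changes. For measurement, K562 cells (2×10^6 cells/mL) received 10 μM compound for 30 min, and aliquots were heated for 3 min over 48°C-58°C, pooled, and extracted at 4°C in PBS with 0.5% NP-40. Soluble protein, the supernatant after 21,000xg for 90 min, was quantified by TMTpro 16plex LC-MS/MS with equalised channel sums.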

Amino acid sequences for entries named in this document (tags omitted). A change or cut given only in a name is not applied to a line headed by its entry.
UniProt Q9BUI4: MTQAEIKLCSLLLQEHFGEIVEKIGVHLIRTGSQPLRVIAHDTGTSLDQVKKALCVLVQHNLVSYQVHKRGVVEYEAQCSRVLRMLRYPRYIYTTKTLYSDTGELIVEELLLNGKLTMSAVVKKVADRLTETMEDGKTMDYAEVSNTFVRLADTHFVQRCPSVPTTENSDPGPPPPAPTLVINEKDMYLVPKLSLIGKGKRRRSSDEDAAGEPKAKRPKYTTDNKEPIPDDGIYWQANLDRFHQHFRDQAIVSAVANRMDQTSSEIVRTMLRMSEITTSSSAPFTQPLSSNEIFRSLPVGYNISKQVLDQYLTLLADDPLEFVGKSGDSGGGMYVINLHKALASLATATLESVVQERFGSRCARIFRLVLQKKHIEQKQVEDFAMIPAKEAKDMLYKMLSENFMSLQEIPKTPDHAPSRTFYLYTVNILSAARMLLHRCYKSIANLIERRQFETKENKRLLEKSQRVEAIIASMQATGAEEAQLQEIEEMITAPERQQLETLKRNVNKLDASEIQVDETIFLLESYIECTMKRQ
UniProt O43314: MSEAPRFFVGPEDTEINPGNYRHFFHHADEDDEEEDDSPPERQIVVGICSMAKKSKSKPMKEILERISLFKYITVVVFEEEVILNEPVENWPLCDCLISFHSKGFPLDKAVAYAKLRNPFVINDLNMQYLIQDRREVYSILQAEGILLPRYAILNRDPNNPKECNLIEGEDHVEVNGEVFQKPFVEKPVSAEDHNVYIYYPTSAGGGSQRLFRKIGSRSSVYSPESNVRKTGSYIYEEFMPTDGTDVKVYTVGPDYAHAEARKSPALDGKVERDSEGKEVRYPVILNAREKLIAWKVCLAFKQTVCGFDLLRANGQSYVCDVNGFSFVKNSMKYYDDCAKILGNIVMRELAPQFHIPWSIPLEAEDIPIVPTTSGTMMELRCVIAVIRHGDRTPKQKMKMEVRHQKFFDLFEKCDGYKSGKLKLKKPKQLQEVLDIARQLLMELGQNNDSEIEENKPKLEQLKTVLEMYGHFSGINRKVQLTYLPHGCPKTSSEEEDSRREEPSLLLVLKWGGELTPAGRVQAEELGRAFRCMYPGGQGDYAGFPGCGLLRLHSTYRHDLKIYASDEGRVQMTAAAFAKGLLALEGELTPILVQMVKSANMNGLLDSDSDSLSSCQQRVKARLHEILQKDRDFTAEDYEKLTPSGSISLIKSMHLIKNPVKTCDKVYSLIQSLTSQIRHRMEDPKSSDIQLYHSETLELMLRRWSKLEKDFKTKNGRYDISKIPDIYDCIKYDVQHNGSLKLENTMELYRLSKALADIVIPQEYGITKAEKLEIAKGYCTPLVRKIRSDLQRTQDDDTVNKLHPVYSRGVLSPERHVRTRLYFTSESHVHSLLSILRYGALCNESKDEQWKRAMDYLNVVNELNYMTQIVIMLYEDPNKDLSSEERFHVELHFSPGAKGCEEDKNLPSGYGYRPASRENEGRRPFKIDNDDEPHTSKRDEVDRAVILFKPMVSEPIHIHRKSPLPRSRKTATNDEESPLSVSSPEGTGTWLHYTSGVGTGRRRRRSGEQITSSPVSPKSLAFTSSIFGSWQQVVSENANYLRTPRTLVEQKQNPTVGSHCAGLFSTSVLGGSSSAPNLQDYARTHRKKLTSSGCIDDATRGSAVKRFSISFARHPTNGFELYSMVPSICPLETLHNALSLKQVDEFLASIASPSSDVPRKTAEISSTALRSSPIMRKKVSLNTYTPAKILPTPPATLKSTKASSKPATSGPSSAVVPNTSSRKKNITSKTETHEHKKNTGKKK
UniProt P00491: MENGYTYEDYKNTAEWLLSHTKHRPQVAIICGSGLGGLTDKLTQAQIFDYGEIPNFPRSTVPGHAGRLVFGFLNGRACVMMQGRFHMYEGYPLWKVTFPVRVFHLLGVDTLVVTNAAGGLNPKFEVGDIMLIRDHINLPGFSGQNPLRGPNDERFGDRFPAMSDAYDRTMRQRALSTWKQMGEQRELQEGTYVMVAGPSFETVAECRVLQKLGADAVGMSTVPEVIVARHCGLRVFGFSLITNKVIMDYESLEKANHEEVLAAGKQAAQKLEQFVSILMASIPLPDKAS
UniProt Q13136: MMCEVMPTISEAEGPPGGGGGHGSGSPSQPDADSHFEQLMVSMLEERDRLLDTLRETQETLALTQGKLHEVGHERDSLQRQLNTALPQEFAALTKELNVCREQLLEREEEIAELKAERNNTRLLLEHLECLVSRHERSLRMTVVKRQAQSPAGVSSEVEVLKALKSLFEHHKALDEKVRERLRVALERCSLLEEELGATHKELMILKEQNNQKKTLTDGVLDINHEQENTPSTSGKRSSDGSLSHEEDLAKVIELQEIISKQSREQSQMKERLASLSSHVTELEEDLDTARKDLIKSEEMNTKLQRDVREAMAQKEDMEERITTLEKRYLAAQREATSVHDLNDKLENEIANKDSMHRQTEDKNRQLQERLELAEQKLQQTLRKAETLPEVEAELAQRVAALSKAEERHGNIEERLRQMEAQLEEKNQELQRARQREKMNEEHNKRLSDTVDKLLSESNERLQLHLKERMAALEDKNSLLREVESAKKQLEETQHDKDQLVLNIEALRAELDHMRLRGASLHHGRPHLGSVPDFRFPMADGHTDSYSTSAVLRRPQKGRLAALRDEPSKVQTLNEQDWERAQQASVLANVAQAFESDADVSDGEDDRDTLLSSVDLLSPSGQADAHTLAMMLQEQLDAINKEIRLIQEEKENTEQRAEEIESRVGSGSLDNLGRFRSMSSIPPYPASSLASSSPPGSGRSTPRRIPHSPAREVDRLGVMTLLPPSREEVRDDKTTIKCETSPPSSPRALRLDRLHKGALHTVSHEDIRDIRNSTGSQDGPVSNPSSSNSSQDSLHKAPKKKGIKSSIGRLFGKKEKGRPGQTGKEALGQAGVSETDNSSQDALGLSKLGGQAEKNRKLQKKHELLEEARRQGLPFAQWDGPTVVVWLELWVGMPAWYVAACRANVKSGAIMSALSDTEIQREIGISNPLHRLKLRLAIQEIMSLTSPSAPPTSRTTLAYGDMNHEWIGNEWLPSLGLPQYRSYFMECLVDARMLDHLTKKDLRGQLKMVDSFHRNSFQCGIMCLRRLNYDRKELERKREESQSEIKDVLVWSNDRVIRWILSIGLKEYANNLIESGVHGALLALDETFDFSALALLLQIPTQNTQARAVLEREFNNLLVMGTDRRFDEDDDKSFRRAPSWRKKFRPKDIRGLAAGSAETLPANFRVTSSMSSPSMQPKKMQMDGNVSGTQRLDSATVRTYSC
UniProt Q6UW63: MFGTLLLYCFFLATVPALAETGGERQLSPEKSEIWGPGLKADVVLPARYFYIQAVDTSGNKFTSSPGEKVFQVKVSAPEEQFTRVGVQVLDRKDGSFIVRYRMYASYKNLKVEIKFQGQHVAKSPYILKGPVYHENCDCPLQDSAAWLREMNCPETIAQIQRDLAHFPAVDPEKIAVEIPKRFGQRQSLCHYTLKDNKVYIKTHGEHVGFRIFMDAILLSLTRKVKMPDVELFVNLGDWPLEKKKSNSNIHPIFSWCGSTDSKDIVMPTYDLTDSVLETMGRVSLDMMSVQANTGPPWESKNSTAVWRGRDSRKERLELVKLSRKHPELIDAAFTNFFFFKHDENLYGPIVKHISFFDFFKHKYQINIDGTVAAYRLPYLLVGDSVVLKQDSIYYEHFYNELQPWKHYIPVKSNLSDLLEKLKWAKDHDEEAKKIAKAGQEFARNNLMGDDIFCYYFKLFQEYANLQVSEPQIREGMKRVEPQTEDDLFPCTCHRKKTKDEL
UniProt Q9NW08: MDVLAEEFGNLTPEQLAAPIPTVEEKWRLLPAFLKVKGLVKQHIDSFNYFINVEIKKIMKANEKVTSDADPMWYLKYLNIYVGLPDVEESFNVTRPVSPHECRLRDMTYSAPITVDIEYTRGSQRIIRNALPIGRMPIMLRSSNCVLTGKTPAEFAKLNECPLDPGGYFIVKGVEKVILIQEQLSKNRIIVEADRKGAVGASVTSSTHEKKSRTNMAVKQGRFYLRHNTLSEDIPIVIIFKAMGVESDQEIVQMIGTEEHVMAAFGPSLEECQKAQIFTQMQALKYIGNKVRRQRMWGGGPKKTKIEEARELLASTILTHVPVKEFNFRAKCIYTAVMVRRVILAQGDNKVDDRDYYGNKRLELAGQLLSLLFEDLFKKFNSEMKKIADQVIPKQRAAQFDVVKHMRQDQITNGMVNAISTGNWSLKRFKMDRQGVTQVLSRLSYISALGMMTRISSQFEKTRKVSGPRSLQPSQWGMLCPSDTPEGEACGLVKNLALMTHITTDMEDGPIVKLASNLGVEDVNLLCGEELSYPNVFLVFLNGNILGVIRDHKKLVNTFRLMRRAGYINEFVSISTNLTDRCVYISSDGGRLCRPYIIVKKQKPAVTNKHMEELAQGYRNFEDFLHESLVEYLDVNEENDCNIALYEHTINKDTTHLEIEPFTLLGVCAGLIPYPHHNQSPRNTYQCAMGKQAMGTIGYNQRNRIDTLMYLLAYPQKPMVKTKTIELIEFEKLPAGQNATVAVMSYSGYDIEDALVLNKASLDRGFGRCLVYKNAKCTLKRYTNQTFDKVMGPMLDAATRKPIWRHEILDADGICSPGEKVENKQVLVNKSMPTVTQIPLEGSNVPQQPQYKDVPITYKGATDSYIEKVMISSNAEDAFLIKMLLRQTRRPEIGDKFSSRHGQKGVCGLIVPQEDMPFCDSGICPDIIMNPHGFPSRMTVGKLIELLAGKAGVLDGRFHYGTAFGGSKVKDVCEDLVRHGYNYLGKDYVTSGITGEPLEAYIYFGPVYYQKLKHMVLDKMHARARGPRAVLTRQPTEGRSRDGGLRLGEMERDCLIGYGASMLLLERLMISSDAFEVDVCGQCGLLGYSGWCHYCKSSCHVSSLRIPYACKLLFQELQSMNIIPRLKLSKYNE
UniProt Q9HAB8: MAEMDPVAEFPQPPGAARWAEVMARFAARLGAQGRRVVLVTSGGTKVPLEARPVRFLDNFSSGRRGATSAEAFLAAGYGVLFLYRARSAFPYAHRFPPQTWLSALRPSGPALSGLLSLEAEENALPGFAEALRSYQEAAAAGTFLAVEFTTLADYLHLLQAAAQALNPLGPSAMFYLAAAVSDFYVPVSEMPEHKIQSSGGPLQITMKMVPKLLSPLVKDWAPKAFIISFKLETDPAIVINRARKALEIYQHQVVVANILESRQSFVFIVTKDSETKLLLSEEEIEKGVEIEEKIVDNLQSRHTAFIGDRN
UniProt Q9NR33: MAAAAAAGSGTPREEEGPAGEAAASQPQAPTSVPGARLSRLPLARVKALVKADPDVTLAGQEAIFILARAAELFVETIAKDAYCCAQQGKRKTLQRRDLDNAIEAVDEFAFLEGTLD
UniProt Q9Y2G5: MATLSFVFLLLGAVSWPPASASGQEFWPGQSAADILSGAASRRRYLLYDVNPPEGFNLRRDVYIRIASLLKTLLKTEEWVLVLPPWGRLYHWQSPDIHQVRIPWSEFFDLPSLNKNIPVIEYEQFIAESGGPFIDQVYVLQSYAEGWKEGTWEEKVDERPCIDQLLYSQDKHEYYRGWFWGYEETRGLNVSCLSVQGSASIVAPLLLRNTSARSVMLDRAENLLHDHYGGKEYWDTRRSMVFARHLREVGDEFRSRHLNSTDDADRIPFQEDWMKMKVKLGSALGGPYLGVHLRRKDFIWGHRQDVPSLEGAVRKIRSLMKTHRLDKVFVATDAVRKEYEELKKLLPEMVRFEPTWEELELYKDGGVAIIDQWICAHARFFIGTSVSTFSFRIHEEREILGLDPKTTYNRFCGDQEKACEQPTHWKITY
UniProt P16435: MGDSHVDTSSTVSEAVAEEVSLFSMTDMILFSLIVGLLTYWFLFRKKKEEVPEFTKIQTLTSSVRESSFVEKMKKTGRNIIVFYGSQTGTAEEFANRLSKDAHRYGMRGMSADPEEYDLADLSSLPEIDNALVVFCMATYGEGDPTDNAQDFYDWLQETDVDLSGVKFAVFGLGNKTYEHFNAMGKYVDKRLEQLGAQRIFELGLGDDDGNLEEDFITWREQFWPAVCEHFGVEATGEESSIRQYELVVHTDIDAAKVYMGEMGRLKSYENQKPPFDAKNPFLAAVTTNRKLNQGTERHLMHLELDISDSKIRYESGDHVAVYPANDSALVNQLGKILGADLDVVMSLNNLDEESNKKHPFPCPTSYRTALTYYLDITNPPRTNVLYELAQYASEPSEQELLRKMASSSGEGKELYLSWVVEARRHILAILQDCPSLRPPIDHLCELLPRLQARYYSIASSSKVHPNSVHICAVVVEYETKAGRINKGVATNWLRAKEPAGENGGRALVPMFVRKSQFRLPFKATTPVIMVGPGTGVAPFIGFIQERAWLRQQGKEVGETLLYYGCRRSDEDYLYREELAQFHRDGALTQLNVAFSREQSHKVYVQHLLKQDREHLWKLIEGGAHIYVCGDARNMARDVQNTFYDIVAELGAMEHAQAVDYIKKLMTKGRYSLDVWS
UniProt O75817: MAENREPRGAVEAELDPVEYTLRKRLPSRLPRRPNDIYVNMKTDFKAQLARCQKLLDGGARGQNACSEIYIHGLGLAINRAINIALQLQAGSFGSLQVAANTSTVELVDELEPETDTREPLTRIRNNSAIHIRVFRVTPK

[2] = compound: CC1=C(SC2=C1C(=N[C@H](C3=NN=C(N32)C)CC(=O)N)C4=CC=C(C=C4)Cl)C
Method in brief: as §1

[3] = compound: CC1=C2C(=CC=C1)N=C(N(C2=O)C3=CC=CC=C3C)CN4C=NC5=C(N=CN=C54)N
Method in brief: as §1

[4] = compound: Cc1sc2c(c1C)C(c1ccc(Cl)cc1)=N[C@@H](CC(=O)OC(C)(C)C)c1nnc(C)n1-2
Method in brief: as §1

[5] = compound: c1ccc([C@@H]2C[C@H]2NC2CCNCC2)cc1
Method in brief: as §1

Measured: log2 fold change

PPFIA2 (UniProt O75334)
inactive: [1] -0.011 | [2] 0.161 | [3] -0.012 | [4] 0.06 | [5] -0.191

POLR3C (UniProt Q9BUI4)
inactive: [1] -0.008 | [2] 0.021 | [3] 0 | [4] -0.028 | [5] -0.009

PPIP5K2 (UniProt O43314)
inactive: [1] 0.015 | [2] 0.043 | [3] 0.076 | [4] -0.022 | [5] 0

PNP (UniProt P00491)
inactive: [1] 0.025 | [2] 0.02 | [3] -0.001 | [4] 0.01 | [5] 0.016

PPA2 (UniProt Q9H2U2)
inactive: [1] -0.009 | [2] 0.022 | [3] 0.063 | [4] -0.042 | [5] -0.044

PPFIA1 (UniProt Q13136)
inactive: [1] -0.053 | [2] -0.058 | [3] 0.063 | [4] 0.032 | [5] -0.021

POLR3GL (UniProt Q9BT43)
inactive: [1] 0

POGLUT2 (UniProt Q6UW63)
inactive: [1] 0.037 | [2] -0.045 | [3] -0.001 | [4] 0.013 | [5] 0.001

PLIN3 isoform 2 (UniProt O60664)
inactive: [1] 0.132

POLR3B (UniProt Q9NW08)
inactive: [1] -0.035 | [2] -0.02 | [3] 0.078 | [4] 0.04 | [5] -0.046

POLDIP3 (UniProt Q9BY77)
inactive: [1] -0.01 | [2] -0.092 | [3] -0.075 | [4] 0.108 | [5] -0.011

PPID (UniProt Q08752)
inactive: [1] -0.079 | [2] 0.031 | [3] 0.036 | [4] -0.035 | [5] -0.031

PPCS (UniProt Q9HAB8)
inactive: [1] -0.018 | [2] 0.043 | [3] 0.062 | [4] -0.008 | [5] 0.047

POLE4 (UniProt Q9NR33)
inactive: [1] 0.008 | [2] 0.189 | [3] 0.051 | [4] -0.089 | [5] 0.077

PMAIP1 (UniProt Q13794)
inactive: [1] -0.105 | [2] 0.002 | [3] 0.034 | [4] 0.286 | [5] 0.035

POFUT2 (UniProt Q9Y2G5)
inactive: [1] 0.026 | [2] -0.055 | [3] 0.035 | [4] 0.007 | [5] -0.011

POGLUT1 (UniProt Q8NBL1)
inactive: [1] 0.039 | [2] -0.041 | [3] 0.082 | [4] 0.07 | [5] 0.015

POR (UniProt P16435)
inactive: [1] 0.007 | [2] 0.064 | [3] 0.017 | [4] -0.002 | [5] -0.06

POTEI (UniProt P0CG38)
inactive: [1] 0.025 | [2] 0.012 | [3] -0.059 | [4] -0.03 | [5] -0.002

PMPCA (UniProt Q10713)
inactive: [1] -0.015 | [2] 0.121 | [3] 0.06 | [4] 0.018 | [5] -0.047

PNO1 (UniProt Q9NRX1)
inactive: [1] -0.098 | [2] -0.007 | [3] -0.05 | [4] 0.203 | [5] -0.037

PNPT1 (UniProt Q8TCS8)
inactive: [1] -0.134 | [2] 0.073 | [3] 0.091 | [4] -0.011 | [5] -0.042

POLR2M (UniProt Q6EEV4)
inactive: [1] 0.092 | [2] 0.105 | [3] -0.002 | [4] -0.128 | [5] -0.107

POLR3D (UniProt P05423)
inactive: [1] 0.008 | [2] -0.072 | [3] -0.013 | [4] 0.056 | [5] 0.096

POMGNT1 isoform 2 (UniProt Q8WZA1)
inactive: [1] 0.028 | [2] 0.093 | [3] 0.09 | [4] 0.078 | [5] 0.091

POLQ (UniProt O75417)
inactive: [1] -0.004

PPCDC (UniProt Q96CD2)
inactive: [1] -0.039 | [2] 0.126 | [3] 0.083 | [4] -0.047 | [5] -0.045

POP7 (UniProt O75817)
inactive: [1] 0.027 | [2] -0.159 | [3] 0.048 | [4] 0.059 | [5] 0.096

PPIP5K1 (UniProt Q6PFW1)
inactive: [1] 0.018 | [2] 0.057 | [3] 0.033 | [4] -0.023 | [5] -0.016

PLS1 (UniProt Q14651)
inactive: [1] -0.055 | [2] 0.049 | [3] 0.066 | [4] 0 | [5] -0.004

PPIG (UniProt Q13427)
inactive: [1] -0.295

POLR2M (UniProt P0CAP2)
inactive: [1] -0.021 | [2] 0.096 | [3] 0.045 | [4] 0.004 | [5] -0.062

POLR2D (UniProt O15514)
inactive: [1] 0.003 | [2] 0.134 | [3] -0.006 | [4] 0.17 | [5] 0.045

POLR3F (UniProt Q9H1D9)
inactive: [1] 0.025 | [2] -0.029 | [3] 0.124 | [4] -0.005 | [5] 0.009

POM121C (UniProt A8CG34)
inactive: [1] 0.198

PMPCB (UniProt O75439)
inactive: [1] 0.005 | [2] 0.111 | [3] 0.01 | [4] 0.012 | [5] -0.053

PLIN3 (UniProt O60664)
inactive: [1] -0.024 | [2] -0.004 | [3] -0.007 | [4] -0.017 | [5] -0.028

PPAN isoform 3 (UniProt Q9NQ55)
inactive: [1] 0.015 | [2] -0.244 | [3] -0.164 | [4] 0.12 | [5] -0.067

POLR1A (UniProt O95602)
inactive: [1] 0.049 | [2] -0.043 | [3] -0.044 | [4] 0.096 | [5] -0.015

POU2F1 isoform 6 (UniProt P14859)
inactive: [1] -0.081 | [2] 0.103 | [3] 0.086 | [4] -0.049 | [5] 0.085

PLEKHM2 (UniProt Q8IWE5)
inactive: [1] -0.027 | [2] 0.076 | [3] -0.016 | [4] 0.089 | [5] -0.048

PML (UniProt P29590)
inactive: [1] -0.008 | [2] -0.054 | [3] 0.002 | [4] -0.005 | [5] 0.001

PLRG1 (UniProt O43660)
inactive: [1] -0.048 | [2] -0.066 | [3] -0.037 | [4] 0.017 | [5] 0.086

PPIL2 (UniProt Q13356)
inactive: [1] -0.028 | [2] 0.041 | [3] 0.098 | [4] -0.019 | [5] -0.011

POSTN (UniProt Q15063)
inactive: [1] -0.103 | [2] -0.057 | [3] 0.082 | [4] -0.102 | [5] -0.022

Reprinted at random: 2 records from the list
POSTN (UniProt Q15063)
inactive: [1] -0.103 | [2] -0.057 | [3] 0.082 | [4] -0.102 | [5] -0.022

PLEKHM2 (UniProt Q8IWE5)
inactive: [1] -0.027 | [2] 0.076 | [3] -0.016 | [4] 0.089 | [5] -0.048

The listing continues.

PPIF (UniProt P30405)
inactive: [1] 0.038 | [2] 0.063 | [3] 0.075 | [4] 0.006 | [5] -0.02

PPIA (UniProt P62937)
inactive: [1] -0.01 | [2] 0.03 | [3] 0.041 | [4] -0.014 | [5] -0.003

PMM1 (UniProt Q92871)
inactive: [1] -0.031 | [2] -0.001 | [3] 0.091 | [4] 0.004 | [5] -0.006

POGLUT3 (UniProt Q7Z4H8)
inactive: [1] 0.022 | [2] -0.034 | [3] -0.033 | [4] 0.016 | [5] -0.035

PPIE (UniProt Q9UNP9)
inactive: [1] -0.027 | [2] -0.022 | [3] -0.073 | [4] 0.034 | [5] 0.041

POLR3G (UniProt O15318)
inactive: [1] -0.006 | [2] -0.012 | [3] 0.053 | [4] 0.024 | [5] 0.047

POLR3A (UniProt O14802)
inactive: [1] -0.027 | [2] -0.033 | [3] -0.014 | [4] 0.032 | [5] 0.023

POLA1 (UniProt P09884)
inactive: [1] -0.059 | [2] 0.105 | [3] 0.101 | [4] -0.012 | [5] 0

PNPLA6 (UniProt Q8IY17)
inactive: [1] -0.003 | [2] -0.011 | [3] 0.054 | [4] 0.023 | [5] -0.04

PPAT (UniProt Q06203)
inactive: [1] 0.014 | [2] 0.078 | [3] 0.003 | [4] -0.005 | [5] -0.011

PNPLA2 (UniProt Q96AD5)
inactive: [1] 0.06 | [2] 0.014 | [3] 0.037 | [4] 0.068 | [5] -0.046
